Experiment: Quality of the clamps: blood glucose concentration statistics
Assay type: in vivo, human
Conditions: single 0.4 U/kg s.c., 24 h euglycemic clamp, healthy volunteers; for Mean blood glucose concentraion after dose: mean ± SD

Substance | Coefficient of variation of the blood glucose concentrations [%] | Mean blood glucose concentraion after dose [mmol/L]
Lantus [Reference drug] | 4.8 | 4.23 ± 0.20
recombinant insulin glargine [Test drug] | 5.0 | 4.27 ± 0.21
